Laboratory results reported in article PMC5861360.

Target: Flag-tagged FruBM (Drosophila melanogaster)
Test: co-IP; lysates of S2 cells cotransfected with Flag-FruBM and one V5-tagged protein; precipitated with rabbit anti-Flag antibody (3 h, 4°C) and Dynabeads Protein G; lysis buffer 50 mM HEPES pH 7.5, 100 mM NaCl, 50 mM ZnSO4, 10 mM NaF, 0.2% NP40; western blot with anti-V5

binding | Binder
binds | V5-tagged EcR-A (receptor, UniProt P34021-2 1-849) MLTTSGQQQSKQKLSTLPSHILLQQQLAASAGPSSSVSLSPSSSAALTLHVASANGGARETTSAAAVKDKLRPTPTAIKIEPMPDVISVGTVAGGSSVATVVAPAATTTSNKPNSTAAPSTSAAAANGHLVLVPNKRPRLDVTEDWMSTPSPGSVPSSAPPLSPSPGSQNHSYNMSNGYASPMSAGSYDPYSPTGKTGRDDLSPSSSLNGYSANESCDAKKSKKGPAPRVQEELCLVCGDRASGYHYNALTCEGCKGFFRRSVTKSAVYCCKFGRACEMDMYMRRKCQECRLKKCLAVGMRPECVVPENQCAMKRREKKAQKEKDKMTTSPSSQHGGNGSLASGGGQDFVKKEILDLMTCEPPQHATIPLLPDEILAKCQARNIPSLTYNQLAVIYKLIWYQDGYEQPSEEDLRRIMSQPDENESQTDVSFRHITEITILTVQLIVEFAKGLPAFTKIPQEDQITLLKACSSEVMMLRMARRYDHSSDSIFFANNRSYTRDSYKMAGMADNIEDLLHFCRQMFSMKVDNVEYALLTAIVIFSDRPGLEKAQLVEAIQSYYIDTLRIYILNRHCGDSMSLVFYAKLLSILTELRTLGNQNAEMCFSLKLKNRKLPKFLEEIWDVHAIPPSVQSHLQITQEENERLERAERMRASVGGAITAGIDCDSASTSAAAAAAQHQPQPQPQPQPSSLTQNDSQHQTQPQLQPQLPPQLQGQLQPQLQPQLQTQLQPQIQPQPQLLPVSAPVPASVTAPGSLSAVSTSSEYMGGSAAIGPITPATTSSITAAVTASSTTSAVPMGNGVGVGVGVGGNVSMYANAQTAMALMGVALHSHQEQLIGGVAVKSEHSTTA
binds | V5-tagged Usp (Ultraspiracle) (receptor, UniProt P20153 1-508) MDNCDQDASFRLSHIKEEVKPDISQLNDSNNSSFSPKAESPVPFMQAMSMVHVLPGSNSASSNNNSAGDAQMAQAPNSAGGSAAAAVQQQYPPNHPLSGSKHLCSICGDRASGKHYGVYSCEGCKGFFKRTVRKDLTYACRENRNCIIDKRQRNRCQYCRYQKCLTCGMKREAVQEERQRGARNAAGRLSASGGGSSGPGSVGGSSSQGGGGGGGVSGGMGSGNGSDDFMTNSVSRDFSIERIIEAEQRAETQCGDRALTFLRVGPYSTVQPDYKGAVSALCQVVNKQLFQMVEYARMMPHFAQVPLDDQVILLKAAWIELLIANVAWCSIVSLDDGGAGGGGGGLGHDGSFERRSPGLQPQQLFLNQSFSYHRNSAIKAGVSAIFDRILSELSVKMKRLNLDRRELSCLKAIILYNPDIRGIKSRAEIEMCREKVYACLDEHCRLEHPGDDGRFAQLLLRLPALRSISLKCQDHLFLFRITSDRPLEELFLEQLEAPPPPGLAMKLE

Results are given in words; binding and its absence hold for the method and conditions named. Binding seen in cells or lysates may run through a third protein. Binding calls can cover weak binding; strength is not graded here. Where a sequence is shown, tags or fusion partners need not be part of it.
